Values from PubChem BioAssay AID1224830 (NIAID, 2016).
The deposit covers about 18,000 reagents; shown is a random part of them. About 2,900 of all reagents (16%) count as active. 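Calls are made per well; low scores hint the gene aids the LPS response, high scores that it dampens it.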 Repeated entries: four replicate wells of each siRNA pool. Reagent sequences are not shown.

- Purpose: 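Host factors that control LPS-induced TNF expression in human macrophages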 (primary screen)
- Cell system: human THP-1 monocytic leukaemia cells, TNF dual-luciferase reporter clone, PMA-differentiated to macrophage-like cells
- Reagents: siRNA pool against human genes, 50 nM
- Time to read-out: LPS for 4 h, given about 3 days after siRNA transfection
- Treatment: bacterial LPS (TLR4 ligand), 10 ng/ml
- Measurement: 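TNF firefly reporter luminescence divided by renilla, normalised to the plate median, then turned into a robust z-score for each replicate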
- Scale: TNF reporter robust z-score: higher = stronger TNF reporter response to LPS
- Call rule: 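Each well counts as active if its z-score is over 2.8 or under -1.5; controls are left without a call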

target gene	TNF reporter robust z-score	activity call
ABITRAM	0.97	inactive
ABITRAM	0.71	inactive
ABITRAM	1.48	inactive
ABITRAM	1.1	inactive
SLC18A2	-1.07	inactive
SLC18A2	-0.51	inactive
SLC18A2	-0.89	inactive
SLC18A2	-0.6	inactive
RNF114	-1.11	inactive
RNF114	-0.83	inactive
RNF114	-1.32	inactive
RNF114	0.1	inactive
SWT1	0.64	inactive
SWT1	0.11	inactive
SWT1	-0.68	inactive
SWT1	-0.37	inactive
IQCN	-1.1	inactive
IQCN	-0.95	inactive
IQCN	-0.8	inactive
IQCN	-0.74	inactive
ZNF221	2.66	inactive
ZNF221	0.02	inactive
ZNF221	-0.15	inactive
ZNF221	0.12	inactive
TCN2	-0.78	inactive
TCN2	0.15	inactive
TCN2	-0.72	inactive
TCN2	-0.08	inactive
POLR1H	-0.65	inactive
POLR1H	-0.81	inactive
POLR1H	-0.55	inactive
POLR1H	-0.02	inactive
SLC67A1	-1.19	inactive
SLC67A1	-0.55	inactive
SLC67A1	-1.23	inactive
SLC67A1	-0.94	inactive
ARMC9	-0.95	inactive
ARMC9	0.1	inactive
ARMC9	-0.52	inactive
ARMC9	0.62	inactive
FBRS	1.43	inactive
FBRS	1.32	inactive
FBRS	0.95	inactive
FBRS	0.15	inactive
PDRG1	-1.76	active
PDRG1	-0.91	inactive
PDRG1	-0.73	inactive
PDRG1	-0.48	inactive
RIOK1	-1.43	inactive
RIOK1	-0.04	inactive
RIOK1	0.41	inactive
RIOK1	0.17	inactive
ZNF428	-1.04	inactive
ZNF428	-0.51	inactive
ZNF428	-0.79	inactive
ZNF428	0.19	inactive

Continued (5 carried over from the part before).
target gene	TNF reporter robust z-score	activity call
RIOK1	0.17	inactive
ZNF428	-1.04	inactive
ZNF428	-0.51	inactive
ZNF428	-0.79	inactive
ZNF428	0.19	inactive
SEC11B	-0.65	inactive
SEC11B	0.04	inactive
SEC11B	-0.86	inactive
SEC11B	-0.6	inactive
ST3GAL3	0.43	inactive
ST3GAL3	0.41	inactive
ST3GAL3	0.14	inactive
ST3GAL3	0.88	inactive
RCC1L	0.74	inactive
RCC1L	0.75	inactive
RCC1L	0.09	inactive
RCC1L	2.13	inactive
GALNT4	0.65	inactive
GALNT4	1.61	inactive
GALNT4	1.63	inactive
GALNT4	2.02	inactive
GBE1	-0.32	inactive
GBE1	0.31	inactive
GBE1	0.73	inactive
GBE1	0.82	inactive
PRAF2	-1.68	active
PRAF2	-1.73	active
PRAF2	-1.27	inactive
ESPN	-0.13	inactive
ESPN	-0.11	inactive
ESPN	-0.36	inactive
ESPN	0.31	inactive
OR2L2	0.8	inactive
OR2L2	0.09	inactive
OR2L2	-0.23	inactive
OR2L2	-0.98	inactive
MICU1	-0.44	inactive
MICU1	-0.82	inactive
MICU1	-0.22	inactive
MICU1	-0.43	inactive
HERC2	2.39	inactive
HERC2	1.03	inactive
HERC2	0.25	inactive
HERC2	0.99	inactive
POP5	-0.22	inactive
POP5	-0.38	inactive
POP5	-0.82	inactive
POP5	-0.8	inactive
PDHA2	0.53	inactive
PDHA2	0.71	inactive
PDHA2	-0.17	inactive
PDHA2	0.09	inactive
TUBE1	0.76	inactive
TUBE1	-0.1	inactive
TUBE1	0.08	inactive
TUBE1	1.15	inactive
PHYHD1	1	inactive
PHYHD1	1.25	inactive
PHYHD1	0.98	inactive
PHYHD1	1.94	inactive
OR2D2	0.9	inactive
OR2D2	0.53	inactive
OR2D2	-0.18	inactive
OR2D2	0.7	inactive
ZNF500	-0.37	inactive
ZNF500	-0.16	inactive
ZNF500	1.93	inactive
ZNF500	0.76	inactive
SLC25A2	-0.91	inactive
SLC25A2	-0.14	inactive
SLC25A2	-0.15	inactive
SLC25A2	-0.43	inactive
KIF26B	-1.98	active
KIF26B	-0.75	inactive
KIF26B	-0.92	inactive
KIF26B	-1.03	inactive
ABHD14B	1.01	inactive
ABHD14B	-0.04	inactive
ABHD14B	-0.47	inactive
ABHD14B	-0.37	inactive
SMARCA2	0.45	inactive
SMARCA2	0.55	inactive
SMARCA2	-0.39	inactive
SMARCA2	0.02	inactive
PPP1CA	0.52	inactive
PPP1CA	2.05	inactive
PPP1CA	1.24	inactive
PPP1CA	2.68	inactive
OR2L8	-0.39	inactive
OR2L8	-1.03	inactive
OR2L8	-0.75	inactive
OR2L8	-0.14	inactive
